PubChem BioAssay AID1159578 – Peter MacCallum Cancer Centre – 2015
The whole screen tested about 18,000 reagents; shown is a random part of them. About 1,030 of all reagents (5.7%) were called active. 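Inactive calls also include pools with fewer than 3300 nuclei, whose migration was not assessed.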 Raw values are not corrected between plates. Reagent sequences are not shown.

Test: 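Genome-wide hunt for genes controlling movement of lymphatic endothelial cells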 (primary screen)
Cells: human lymphatic endothelial cells
Reagent: siRNA pool against human genes, 40 nM
Time to read-out: 48 h after transfection
Measurement: 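Cells stained with dye and imaged after a scratch; covered wound area and nuclei counted, duplicates averaged, migration set against mock wells and turned into a robust z-score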
Reading the numbers: migration robust z-score: higher = faster migration into the scratch; migration relative to mock: higher = more scratch area covered than mock; nuclei per well: higher = more cells in the well
Active means: 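Migration changed when robust z exceeds 2 or falls below -2 and mean nuclei number is at least 3300; otherwise not called changed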
Calls: active = migration changed; inactive = no migration change, or too few cells

| target | PubChem SID | migration robust z-score | migration class with cell-count check | migration relative to mock | nuclei per well, duplicate mean | Outcome |
| --- | --- | --- | --- | --- | --- | --- |
| HDIP1 | SID255365475 | 0.3 | migration z between -2 and 2; enough cells | 0.97 | 4942 | inactive |
| SNX13 | SID255356031 | -0.7 | migration z between -2 and 2; enough cells | 0.7 | 5608 | inactive |
| PSD3 | SID255356185 | 0.9 | migration z between -2 and 2; enough cells | 1.13 | 4602 | inactive |
| ZNF248 | SID255359338 | -0.92 | migration z between -2 and 2; enough cells | 0.64 | 6140 | inactive |
| OR5M10 | SID255365623 | 0.11 | migration z between -2 and 2; enough cells | 0.92 | 6996 | inactive |
| UPK1A | SID255355548 | 0.22 | migration z between -2 and 2; enough cells | 0.94 | 5408 | inactive |
| SLC51B | SID255362579 | 0 | migration z between -2 and 2; enough cells | 0.88 | 5156 | inactive |
| TMEM128 | SID255361638 | 0.54 | migration z between -2 and 2; enough cells | 1.02 | 5728 | inactive |
| CNEP1R1 | SID255364510 | 0.17 | migration z between -2 and 2; enough cells | 0.93 | 5592 | inactive |
| PIGX | SID255358310 | 2.02 | migration z above 2; enough cells | 1.41 | 6067 | active |
| EDN1 | SID255349427 | 1.79 | migration z between -2 and 2; enough cells | 1.34 | 5612 | inactive |
| MVP | SID255354700 | -0.16 | migration z between -2 and 2; enough cells | 0.84 | 4549 | inactive |
| EDC3 | SID255360676 | -1.9 | migration z between -2 and 2; enough cells | 0.39 | 5144 | inactive |
| FGFRL1 | SID255357942 | -0.68 | migration z between -2 and 2; enough cells | 0.68 | 4642 | inactive |
| TRIM39 | SID255359106 | 0.83 | migration z between -2 and 2; enough cells | 0.96 | 5458 | inactive |
| TSNAX | SID255352983 | -0.22 | migration z between -2 and 2; enough cells | 0.82 | 6312 | inactive |
| PKD2L2 | SID255356890 | 0.23 | migration z between -2 and 2; enough cells | 0.85 | 4522 | inactive |
| CMAS | SID255358949 | 0.29 | migration z between -2 and 2; enough cells | 0.86 | 5543 | inactive |
| CCNC | SID255348734 | 0.26 | migration z between -2 and 2; enough cells | 0.86 | 6252 | inactive |
| PELP1 | SID255356893 | 0.01 | migration z between -2 and 2; enough cells | 0.9 | 4364 | inactive |
| ELOVL1 | SID255360017 | 0.76 | migration z between -2 and 2; enough cells | 1.08 | 5909 | inactive |
| FBXO16 | SID255363627 | -1.17 | migration z between -2 and 2; enough cells | 0.58 | 5114 | inactive |
| LINC01587 | SID255354842 | -0.8 | migration z between -2 and 2; enough cells | 0.68 | 6248 | inactive |
| LOC728919 (retired record) | SID318171913 | 1.53 | migration z between -2 and 2; enough cells | 1.1 | 5928 | inactive |
| C8orf33 | SID255360110 | 0.84 | migration z between -2 and 2; enough cells | 1.1 | 5332 | inactive |
| SPMIP2 | SID255363551 | -0.14 | migration z between -2 and 2; enough cells | 0.85 | 5366 | inactive |
| WDR90 | SID255363991 | -0.64 | migration z between -2 and 2; enough cells | 0.72 | 5844 | inactive |
| MRPS27 | SID255355994 | 0.19 | migration z between -2 and 2; enough cells | 0.94 | 5582 | inactive |
| LMNTD1 | SID255363706 | -0.23 | migration z between -2 and 2; enough cells | 0.82 | 8038 | inactive |
| CCT4 | SID255355194 | -3.55 | under 3300 nuclei; migration not judged | 0.12 | 3249 | inactive |
| MAPK9 | SID255351818 | -1.77 | migration z between -2 and 2; enough cells | 0.46 | 4506 | inactive |
| HEMK1 | SID255357704 | 0.43 | migration z between -2 and 2; enough cells | 1 | 6882 | inactive |
| HPCA | SID255350267 | 1.18 | migration z between -2 and 2; enough cells | 1.19 | 6465 | inactive |
| TOX4 | SID255354629 | 0.18 | migration z between -2 and 2; enough cells | 0.93 | 5014 | inactive |
| P4HA1 | SID255351393 | -0.65 | migration z between -2 and 2; enough cells | 0.68 | 5682 | inactive |
| TLL2 | SID255352885 | -3.01 | migration z below -2; enough cells | 0.22 | 4245 | active |
| GRIPAP1 | SID255359130 | -0.34 | migration z between -2 and 2; enough cells | 0.8 | 6358 | inactive |
| GEM | SID255349870 | -0.88 | migration z between -2 and 2; enough cells | 0.64 | 6318 | inactive |
| MPP2 | SID255351022 | -5.55 | under 3300 nuclei; migration not judged | -0.26 | 2384 | inactive |

Called active, among the entries above:
| target | PubChem SID | migration robust z-score | migration class with cell-count check | migration relative to mock | nuclei per well, duplicate mean | Outcome |
| --- | --- | --- | --- | --- | --- | --- |
| PIGX | SID255358310 | 2.02 | migration z above 2; enough cells | 1.41 | 6067 | active |
| TLL2 | SID255352885 | -3.01 | migration z below -2; enough cells | 0.22 | 4245 | active |
